Experimental data reported in the supplement of paper PMC6411743.
± gives the standard deviation of the averaged measurements. The entries are a selection whose mix differs from that of the whole data set.

Legend:
Test in all cases: NP40-soluble protein abundance relative to vehicle (solubility fold change) (ratio); higher = more soluble protein in presence of AMP-PNP
[1] = target: T1, A0A087X117|A0A0G2JN29|Q15155 (UniProt Q15155)
T1 sequence (whole entry): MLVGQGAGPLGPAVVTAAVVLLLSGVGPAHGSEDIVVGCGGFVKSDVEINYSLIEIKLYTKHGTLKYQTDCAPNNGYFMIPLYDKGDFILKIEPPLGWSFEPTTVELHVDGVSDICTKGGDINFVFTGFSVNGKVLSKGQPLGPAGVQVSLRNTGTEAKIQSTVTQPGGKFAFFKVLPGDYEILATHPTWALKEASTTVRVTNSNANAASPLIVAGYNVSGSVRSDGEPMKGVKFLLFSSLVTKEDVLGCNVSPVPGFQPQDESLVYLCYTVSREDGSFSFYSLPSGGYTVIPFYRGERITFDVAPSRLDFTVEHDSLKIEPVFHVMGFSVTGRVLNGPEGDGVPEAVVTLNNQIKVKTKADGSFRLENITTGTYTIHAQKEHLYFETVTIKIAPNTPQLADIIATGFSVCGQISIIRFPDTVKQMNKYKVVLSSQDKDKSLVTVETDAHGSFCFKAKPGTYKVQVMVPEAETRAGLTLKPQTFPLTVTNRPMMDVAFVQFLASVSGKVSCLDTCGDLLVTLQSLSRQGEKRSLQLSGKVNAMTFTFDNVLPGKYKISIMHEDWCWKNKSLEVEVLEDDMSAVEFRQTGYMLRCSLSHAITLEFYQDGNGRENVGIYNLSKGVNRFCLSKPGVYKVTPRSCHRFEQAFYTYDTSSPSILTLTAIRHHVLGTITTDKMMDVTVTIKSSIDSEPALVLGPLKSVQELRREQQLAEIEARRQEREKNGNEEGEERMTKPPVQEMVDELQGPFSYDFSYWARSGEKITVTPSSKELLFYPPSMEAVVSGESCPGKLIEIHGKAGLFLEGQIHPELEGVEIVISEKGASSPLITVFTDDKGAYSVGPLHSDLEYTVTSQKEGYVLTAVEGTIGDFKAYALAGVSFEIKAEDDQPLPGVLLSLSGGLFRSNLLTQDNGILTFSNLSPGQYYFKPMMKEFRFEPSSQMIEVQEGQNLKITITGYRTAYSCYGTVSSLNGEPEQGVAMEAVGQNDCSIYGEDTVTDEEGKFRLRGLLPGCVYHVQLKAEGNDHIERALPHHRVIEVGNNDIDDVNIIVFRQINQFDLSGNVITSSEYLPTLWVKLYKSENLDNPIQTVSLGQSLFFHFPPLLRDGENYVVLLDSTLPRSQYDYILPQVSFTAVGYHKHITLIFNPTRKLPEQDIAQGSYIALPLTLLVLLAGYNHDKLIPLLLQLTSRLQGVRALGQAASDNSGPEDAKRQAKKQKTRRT
Method in brief: (§1)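 Eight concentrations, 0.1 to 10 mM, were tested on Jurkat crude lysate for 10 min at room temperature and then 3 min at 37 °C, in three independent experiments. The lysate was solubilised with 0.8% NP40 and benzonase, ultracentrifuged, and the supernatant TMT-labelled for LC-MS/MS. Each value is the fold change against the detergent-processed vehicle in its own replicate, from vsn-normalised intensities.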

[2] = target: T2, A0A087X142|A6NFQ9 and related entries (UniProt Q92599)
T2 sequence (whole entry): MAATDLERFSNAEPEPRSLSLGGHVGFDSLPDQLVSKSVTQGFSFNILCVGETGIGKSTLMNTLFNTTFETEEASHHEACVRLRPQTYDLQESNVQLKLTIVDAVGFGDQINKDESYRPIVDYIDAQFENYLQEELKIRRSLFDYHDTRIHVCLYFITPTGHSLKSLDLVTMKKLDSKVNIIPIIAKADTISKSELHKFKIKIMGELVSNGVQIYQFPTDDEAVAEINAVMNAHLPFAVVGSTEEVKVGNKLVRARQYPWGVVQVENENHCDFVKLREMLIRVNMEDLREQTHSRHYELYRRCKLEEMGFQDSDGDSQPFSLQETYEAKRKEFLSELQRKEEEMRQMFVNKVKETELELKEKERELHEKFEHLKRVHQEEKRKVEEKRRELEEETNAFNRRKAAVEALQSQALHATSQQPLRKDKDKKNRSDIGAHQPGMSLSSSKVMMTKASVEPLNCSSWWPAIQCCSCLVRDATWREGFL
Method in brief: as §1

A0A087X1S7|P09326 = target: T3, A0A087X1S7|P09326 (UniProt P09326)
T3 sequence (whole entry): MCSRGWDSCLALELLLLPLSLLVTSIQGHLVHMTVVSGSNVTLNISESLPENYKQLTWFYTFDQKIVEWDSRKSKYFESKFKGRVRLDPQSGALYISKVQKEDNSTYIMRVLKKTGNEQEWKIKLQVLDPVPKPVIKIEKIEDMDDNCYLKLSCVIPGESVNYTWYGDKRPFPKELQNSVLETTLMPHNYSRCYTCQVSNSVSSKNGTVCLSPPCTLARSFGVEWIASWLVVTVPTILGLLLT
Method in brief: as §1

[3] = target: T4, A0A088AWN8|Q9UHQ1 and related entries (UniProt Q9UHQ1)
T4 sequence (whole entry): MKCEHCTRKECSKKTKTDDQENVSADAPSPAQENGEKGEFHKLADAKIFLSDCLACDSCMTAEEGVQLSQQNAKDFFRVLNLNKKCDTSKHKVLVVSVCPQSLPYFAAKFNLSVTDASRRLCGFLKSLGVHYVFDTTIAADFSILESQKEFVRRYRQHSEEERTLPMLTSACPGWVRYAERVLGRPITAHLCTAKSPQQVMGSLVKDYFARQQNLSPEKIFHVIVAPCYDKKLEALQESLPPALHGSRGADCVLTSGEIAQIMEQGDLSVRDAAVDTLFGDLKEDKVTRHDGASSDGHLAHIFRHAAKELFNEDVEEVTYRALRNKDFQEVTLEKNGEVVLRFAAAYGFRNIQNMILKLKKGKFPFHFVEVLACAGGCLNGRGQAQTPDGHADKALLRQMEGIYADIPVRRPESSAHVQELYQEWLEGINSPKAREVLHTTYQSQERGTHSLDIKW
Method in brief: as §1

[4] = target: T5, A0A0A0MSG2|J3KNW4 and related entries (UniProt Q14192)
T5 sequence (whole entry): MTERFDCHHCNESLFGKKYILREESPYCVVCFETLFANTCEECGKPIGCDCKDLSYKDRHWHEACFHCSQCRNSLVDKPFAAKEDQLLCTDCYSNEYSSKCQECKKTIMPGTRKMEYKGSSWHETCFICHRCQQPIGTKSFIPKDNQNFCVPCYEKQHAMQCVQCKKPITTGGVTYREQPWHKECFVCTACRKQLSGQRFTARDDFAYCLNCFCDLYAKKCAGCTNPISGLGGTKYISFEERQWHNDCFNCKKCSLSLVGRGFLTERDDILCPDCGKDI
Method in brief: as §1

Nc1ncnc2c1ncn2[C@@H]1O[C@H](COP(=O)(O)OP(=O)(O)NP(=O)(O)O)[C@@H](O)[C@H]1O [adenylyl imidodiphosphate]
NP40-soluble protein abundance ([1]; concentration: 6mM): 1.01 ± 0.02
NP40-soluble protein abundance ([1]; concentration: 8mM): 1.01 ± 0.015
NP40-soluble protein abundance ([1]; concentration: 10mM): 1.002 ± 0.0044
NP40-soluble protein abundance ([2]; concentration: 1mM): 0.984 ± 0.021
NP40-soluble protein abundance ([2]; concentration: 2mM): 0.959 ± 0.062
NP40-soluble protein abundance ([2]; concentration: 4mM): 0.978 ± 0.074
NP40-soluble protein abundance ([2]; concentration: 6mM): 0.966 ± 0.021
NP40-soluble protein abundance ([2]; concentration: 8mM): 0.949 ± 0.034
NP40-soluble protein abundance ([2]; concentration: 10mM): 0.941 ± 0.044
NP40-soluble protein abundance (A0A087X1S7|P09326; concentration: 1mM): 1.01 ± 0.032
NP40-soluble protein abundance (A0A087X1S7|P09326; concentration: 2mM): 1.09 ± 0.14
NP40-soluble protein abundance (A0A087X1S7|P09326; concentration: 4mM): 1.04 ± 0.03
NP40-soluble protein abundance (A0A087X1S7|P09326; concentration: 6mM): 1.04 ± 0.07
NP40-soluble protein abundance (A0A087X1S7|P09326; concentration: 8mM): 1.03 ± 0.037
NP40-soluble protein abundance (A0A087X1S7|P09326; concentration: 10mM): 1.06 ± 0.083
NP40-soluble protein abundance ([3]; concentration: 1mM): 0.991 ± 0.025
NP40-soluble protein abundance ([3]; concentration: 2mM): 0.993 ± 0.063
NP40-soluble protein abundance ([3]; concentration: 4mM): 0.975 ± 0.062
NP40-soluble protein abundance ([3]; concentration: 6mM): 1.01 ± 0.073
NP40-soluble protein abundance ([3]; concentration: 8mM): 1 ± 0.1
NP40-soluble protein abundance ([3]; concentration: 10mM): 0.987 ± 0.097
NP40-soluble protein abundance ([4]; concentration: 1mM): 0.991 ± 0.05
NP40-soluble protein abundance ([4]; concentration: 2mM): 0.988 ± 0.09
NP40-soluble protein abundance ([4]; concentration: 4mM): 1.02 ± 0.048
NP40-soluble protein abundance ([4]; concentration: 6mM): 0.966 ± 0.036
NP40-soluble protein abundance ([4]; concentration: 8mM): 0.979 ± 0.083
NP40-soluble protein abundance ([4]; concentration: 10mM): 0.947 ± 0.035
